No constants are given. Whether binding was seen depends on the method and setting. In cells and extracts the contact can be indirect. Some binding calls cover weakened binding; strength is not graded here. For some of these results: Tags and fused reporters may be left off the sequences shown.

Sequences of proteins named here, by UniProt entry; tags and fusion partners are left off.
UniProt Q92769: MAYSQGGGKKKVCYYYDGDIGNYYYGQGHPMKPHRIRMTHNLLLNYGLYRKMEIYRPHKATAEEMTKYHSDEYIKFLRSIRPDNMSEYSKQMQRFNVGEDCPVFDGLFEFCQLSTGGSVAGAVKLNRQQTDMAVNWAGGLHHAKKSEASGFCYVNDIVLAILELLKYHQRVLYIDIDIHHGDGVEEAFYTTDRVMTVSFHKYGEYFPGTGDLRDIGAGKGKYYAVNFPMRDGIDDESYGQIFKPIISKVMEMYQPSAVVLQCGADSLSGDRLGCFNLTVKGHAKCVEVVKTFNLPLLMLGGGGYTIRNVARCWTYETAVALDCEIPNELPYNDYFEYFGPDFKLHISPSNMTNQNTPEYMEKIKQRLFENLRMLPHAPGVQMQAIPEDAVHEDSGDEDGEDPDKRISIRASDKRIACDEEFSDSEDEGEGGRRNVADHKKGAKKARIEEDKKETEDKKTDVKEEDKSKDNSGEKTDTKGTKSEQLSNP
UniProt Q13547: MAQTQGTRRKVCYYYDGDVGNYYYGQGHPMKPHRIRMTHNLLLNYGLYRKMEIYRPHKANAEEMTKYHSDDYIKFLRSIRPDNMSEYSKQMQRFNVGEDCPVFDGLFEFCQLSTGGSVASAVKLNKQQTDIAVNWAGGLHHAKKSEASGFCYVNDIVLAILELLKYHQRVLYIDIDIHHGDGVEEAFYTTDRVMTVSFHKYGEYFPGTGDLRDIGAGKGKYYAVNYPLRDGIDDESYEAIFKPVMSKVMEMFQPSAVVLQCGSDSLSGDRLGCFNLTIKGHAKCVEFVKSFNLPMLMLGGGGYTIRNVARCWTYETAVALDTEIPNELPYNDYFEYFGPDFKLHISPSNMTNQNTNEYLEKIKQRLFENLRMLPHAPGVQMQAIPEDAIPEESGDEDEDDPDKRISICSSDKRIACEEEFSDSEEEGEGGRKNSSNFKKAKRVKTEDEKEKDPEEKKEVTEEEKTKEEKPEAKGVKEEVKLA

Experiment [1] has as its target T1, Myb-binding protein 1a (Mybbp1a), endogenous (human (endogenous in HeLa)) (UniProt Q9BQG0).
T1 sequence: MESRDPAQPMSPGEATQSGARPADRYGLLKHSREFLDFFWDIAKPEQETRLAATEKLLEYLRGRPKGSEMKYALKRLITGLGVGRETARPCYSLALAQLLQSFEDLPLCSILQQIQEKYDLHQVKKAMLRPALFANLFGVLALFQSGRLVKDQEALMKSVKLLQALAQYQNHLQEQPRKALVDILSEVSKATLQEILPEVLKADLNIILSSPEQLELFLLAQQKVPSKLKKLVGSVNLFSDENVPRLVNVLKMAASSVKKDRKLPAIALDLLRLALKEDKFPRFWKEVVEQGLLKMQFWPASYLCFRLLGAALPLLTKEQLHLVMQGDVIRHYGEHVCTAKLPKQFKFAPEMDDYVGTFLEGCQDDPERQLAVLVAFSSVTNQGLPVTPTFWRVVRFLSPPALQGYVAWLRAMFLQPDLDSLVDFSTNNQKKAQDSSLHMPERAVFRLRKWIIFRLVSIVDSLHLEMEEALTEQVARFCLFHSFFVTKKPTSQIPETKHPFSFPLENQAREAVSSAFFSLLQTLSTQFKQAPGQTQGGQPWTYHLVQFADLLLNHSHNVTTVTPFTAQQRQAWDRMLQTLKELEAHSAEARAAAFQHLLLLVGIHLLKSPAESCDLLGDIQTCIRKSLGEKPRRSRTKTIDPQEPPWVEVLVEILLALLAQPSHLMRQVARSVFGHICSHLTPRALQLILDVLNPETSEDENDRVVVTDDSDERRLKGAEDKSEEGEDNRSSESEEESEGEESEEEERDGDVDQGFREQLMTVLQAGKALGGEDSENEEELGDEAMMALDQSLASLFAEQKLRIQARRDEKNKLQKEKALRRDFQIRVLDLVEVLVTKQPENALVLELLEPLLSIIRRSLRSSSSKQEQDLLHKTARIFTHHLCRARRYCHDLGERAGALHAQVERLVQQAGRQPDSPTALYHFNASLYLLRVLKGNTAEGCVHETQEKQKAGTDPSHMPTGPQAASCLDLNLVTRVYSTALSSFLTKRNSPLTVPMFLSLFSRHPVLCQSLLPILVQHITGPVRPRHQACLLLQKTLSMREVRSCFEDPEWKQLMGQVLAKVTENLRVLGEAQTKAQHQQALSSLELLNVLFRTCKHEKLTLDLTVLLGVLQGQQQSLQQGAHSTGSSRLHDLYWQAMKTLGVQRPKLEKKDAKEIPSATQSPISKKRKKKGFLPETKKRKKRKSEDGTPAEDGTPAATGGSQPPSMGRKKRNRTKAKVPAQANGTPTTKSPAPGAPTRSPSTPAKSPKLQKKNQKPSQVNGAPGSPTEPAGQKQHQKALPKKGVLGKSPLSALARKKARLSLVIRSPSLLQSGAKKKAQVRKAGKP
Nature of the experiment: co-IP; IP of endogenous Mybbp1a with anti-Mybbp1a antibody (control IgG beside it) from 1 mg cell extract, 2.5 ug antibody, 4 °C overnight, protein G-sepharose, six washes with WCE buffer; blots probed for HDAC1 and HDAC2.

In another experiment the target is T2, Myc-Mybbp1a (exogenous) (UniProt Q7TPV4).
T2 sequence: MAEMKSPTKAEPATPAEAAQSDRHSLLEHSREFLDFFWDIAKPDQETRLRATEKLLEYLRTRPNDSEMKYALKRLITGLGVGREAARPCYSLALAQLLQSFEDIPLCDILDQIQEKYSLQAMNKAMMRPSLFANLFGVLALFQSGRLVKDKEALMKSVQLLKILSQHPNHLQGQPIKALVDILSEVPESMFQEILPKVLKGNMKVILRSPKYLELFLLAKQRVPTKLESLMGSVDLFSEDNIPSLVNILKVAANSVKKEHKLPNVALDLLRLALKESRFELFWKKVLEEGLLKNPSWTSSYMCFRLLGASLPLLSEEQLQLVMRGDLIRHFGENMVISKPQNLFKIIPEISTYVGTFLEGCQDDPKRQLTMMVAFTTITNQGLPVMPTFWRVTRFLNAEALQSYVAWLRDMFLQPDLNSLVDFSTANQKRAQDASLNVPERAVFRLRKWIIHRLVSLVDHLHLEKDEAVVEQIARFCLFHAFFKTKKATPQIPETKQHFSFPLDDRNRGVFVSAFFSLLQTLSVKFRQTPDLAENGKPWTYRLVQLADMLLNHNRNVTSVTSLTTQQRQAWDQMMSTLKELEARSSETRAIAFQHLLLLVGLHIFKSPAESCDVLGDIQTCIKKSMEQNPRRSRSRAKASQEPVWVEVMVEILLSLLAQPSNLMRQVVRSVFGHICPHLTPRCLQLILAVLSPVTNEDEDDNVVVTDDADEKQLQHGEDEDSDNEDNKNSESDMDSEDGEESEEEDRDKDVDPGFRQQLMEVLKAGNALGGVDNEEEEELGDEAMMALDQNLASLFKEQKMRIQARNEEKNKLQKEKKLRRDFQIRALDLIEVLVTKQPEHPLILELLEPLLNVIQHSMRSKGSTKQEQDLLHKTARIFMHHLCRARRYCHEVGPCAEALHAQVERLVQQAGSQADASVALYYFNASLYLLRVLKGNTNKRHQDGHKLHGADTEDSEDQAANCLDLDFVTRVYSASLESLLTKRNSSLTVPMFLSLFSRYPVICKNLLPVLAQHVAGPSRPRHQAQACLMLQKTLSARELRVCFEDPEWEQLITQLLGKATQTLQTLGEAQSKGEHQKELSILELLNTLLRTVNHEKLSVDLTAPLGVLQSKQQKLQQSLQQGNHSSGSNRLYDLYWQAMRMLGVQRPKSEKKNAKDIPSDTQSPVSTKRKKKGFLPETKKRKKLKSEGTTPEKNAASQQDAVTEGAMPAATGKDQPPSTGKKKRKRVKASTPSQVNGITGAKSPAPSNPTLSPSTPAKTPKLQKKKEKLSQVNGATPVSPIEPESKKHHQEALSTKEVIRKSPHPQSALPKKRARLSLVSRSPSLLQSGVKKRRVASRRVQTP
The experiment is described as follows: co-IP; co-immunoprecipitation with exogenous Myc-Mybbp1a; data not shown, which antibody precipitated is not told.

With “Histone deacetylase 2 (HDAC2), endogenous (from UniProt Q92769 1-488) (enzyme)”, the binding result (in experiment [1]; in the experiment with Myc-Mybbp1a (exogenous)) was “binds” each time.

On to “Histone deacetylase 1 (HDAC1), endogenous (from UniProt Q13547 1-482) (enzyme)”, for which the binding result (in experiment [1]; with Myc-Mybbp1a (exogenous)) was “binds” throughout.

For the origin of these results see article PMC3407492.
